Reference: patent US20030022837A1 (Stanford University, published 2003)
Results are given in words; binding and its absence hold for the method and conditions named. For part of these data: Binding seen in cells or lysates may run through a third protein. Some binding calls cover weakened binding; strength is not graded here. For part of these data: Where a sequence is shown, tags or fusion partners need not be part of it. Values belong to the binder of their own block, whether it stands above or below them.

Sequences of proteins named here, by UniProt entry; tags and fusion partners are left off.
UniProt Q12834: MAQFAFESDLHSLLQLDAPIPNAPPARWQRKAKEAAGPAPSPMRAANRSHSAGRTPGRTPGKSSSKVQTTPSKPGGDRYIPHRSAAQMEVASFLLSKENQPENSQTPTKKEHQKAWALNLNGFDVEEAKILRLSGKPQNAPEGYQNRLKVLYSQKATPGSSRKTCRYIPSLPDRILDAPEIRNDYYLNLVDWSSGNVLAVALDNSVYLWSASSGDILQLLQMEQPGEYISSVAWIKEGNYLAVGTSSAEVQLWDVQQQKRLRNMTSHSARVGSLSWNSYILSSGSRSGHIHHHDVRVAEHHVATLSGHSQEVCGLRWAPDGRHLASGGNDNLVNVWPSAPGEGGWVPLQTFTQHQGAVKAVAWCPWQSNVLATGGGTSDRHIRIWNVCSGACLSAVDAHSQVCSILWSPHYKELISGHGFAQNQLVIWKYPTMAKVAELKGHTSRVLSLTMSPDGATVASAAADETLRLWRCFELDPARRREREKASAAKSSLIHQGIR
UniProt P13350: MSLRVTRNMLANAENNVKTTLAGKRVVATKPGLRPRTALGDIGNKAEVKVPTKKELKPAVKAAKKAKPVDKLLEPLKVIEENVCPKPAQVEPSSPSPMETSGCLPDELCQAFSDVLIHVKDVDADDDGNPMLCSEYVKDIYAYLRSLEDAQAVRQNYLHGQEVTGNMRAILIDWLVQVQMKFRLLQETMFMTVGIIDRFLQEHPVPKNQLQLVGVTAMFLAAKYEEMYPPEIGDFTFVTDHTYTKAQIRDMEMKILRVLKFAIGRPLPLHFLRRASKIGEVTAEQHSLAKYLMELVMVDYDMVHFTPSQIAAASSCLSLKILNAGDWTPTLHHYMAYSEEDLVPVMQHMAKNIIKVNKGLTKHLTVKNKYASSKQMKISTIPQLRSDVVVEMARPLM

Assays:
[1] = molecular target: His-Cdc20 (baculovirus-expressed human Cdc20) (human) (UniProt Q12834); test: purified MBP-Emi1 variants and baculovirus-expressed Cdc20, amylose bead pull-down
[2] = molecular target: T1, Xenopus cyclin B2 (Xenopus) (UniProt P13351); test: yeast two-hybrid screen
T1 sequence (looked up): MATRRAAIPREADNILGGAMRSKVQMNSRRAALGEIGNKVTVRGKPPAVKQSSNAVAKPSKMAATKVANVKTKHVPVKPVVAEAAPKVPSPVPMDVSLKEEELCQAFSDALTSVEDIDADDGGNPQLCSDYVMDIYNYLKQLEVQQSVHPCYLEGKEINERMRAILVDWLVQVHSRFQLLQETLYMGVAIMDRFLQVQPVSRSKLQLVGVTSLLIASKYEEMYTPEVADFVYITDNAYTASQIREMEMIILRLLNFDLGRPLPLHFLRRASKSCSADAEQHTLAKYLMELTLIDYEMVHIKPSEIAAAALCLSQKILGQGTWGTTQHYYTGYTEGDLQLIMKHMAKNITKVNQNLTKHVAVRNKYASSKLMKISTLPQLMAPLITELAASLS

[3] = molecular target: Xenopus cyclin B1 (Xenopus) (UniProt P13350); test: yeast two-hybrid screen
[4] = molecular target: His-Cdc20 (baculovirus-expressed human Cdc20) (human) (UniProt Q12834); test: purified MBP-Emi1 and His-Cdc20 (100 nM each), amylose bead pull-down
[5] = molecular target: human Cdc20 (IVT hCdc20; endogenous Cdc20 of HeLa lysate) (human) (UniProt Q12834); test: co-immunoprecipitation from HeLa lysate with anti-hEmi1 antibody
[6] = molecular target: His-Cdc20 (baculovirus-expressed human Cdc20) (human) (UniProt Q12834); test: purified MBP-Emi1-CT and His-Cdc20, amylose bead pull-down

B2: Emi1-NT (Xenopus Emi1 N-terminus, amino acids 1-193), two-hybrid bait (protein)
chain: MMCGFASNQSPKKLSSKKSSATNVHLEISPVKHHPPCKVYENVQGSCLDSAICTTVAKCADLTDDLPVHNKENLLHRLNDLETNSYEEYSALQDSGYSSILQNDSPCQDETDRKVSDIQVRETPKNFMSYQRPFHTLSKINLPILRFEEAVCSTLKKMRKTNKKIDWNAVDVVCGGNYGLEHLIGKSMGLERF
- binding [2]: binds
- binding [3]: binds

B3: Xenopus Emi1 (Early Mitotic Inhibitor 1), full-length wild type (other)
chain: MMCGFASNQSPKKLSSKKSSATNVHLEISPVKHHPPCKVYENVQGSCLDSAICTTVAKCADLTDDLPVHNKENLLHRLNDLETNSYEEYSALQDSGYSSILQNDSPCQDETDRKVSDIQVRETPKNFMSYQRPFHTLSKINLPILRFEEAVCSTLKKMRKTNKKIDWNAVDVVCGGNYGLEHLIGKSMGLERFDILAELFHRDFKHLLTKILRHLSAMDLINVISVSTTWRKLLQKDNWAYNAYKLGCKELCEKRAKVSSHTATRDESLCRVPLASVQKVAASSLCTSKKQSKNKNGGLSCNRLAEFIEVAQTLKNDQSLKVCVDCGSPAKHDPCLHRAICTRESCKLDFCTRCSCKYHFSKSCLMSKPGSYRIPSEPLPGSKKSKQNLRRL
notes: 392 residues; also called xEmi1; Emi1p
- binding [4]: binds

B4: human Emi1 (hEmi1), full length (protein)
chain: MSRRPCSCALRPPRCSCSASPSAVTAAGRPRPSDSCKEESSTLSVKMKCDFNCNHVHSGLKLVKPDDIGRLVSYTPAYLEGSCKDCIKDYERLSCIGSPIVSPRIVQLETESKRLHNKENQHVQQTLNSTNEIEALETSRLYEDSGYSSFSLQSGLSEHEEGSLLEENFGDSLQSCLLQIQSPDQYPNKNLLPVLHFEKVVCSTLKKNAKRNPKVDREMLKEIIARGNFRLQNIIGRKMGLECVDILSELFRRGLRHVLATILAQLSDMDLINVSKVSTTWKKILEDDKGAFQLYSKAIQRVTENNNKFSPHASTREYVMFRTPLASVQKSAAQTSLKKDAQTKLSNQGDQKGSTYSRHNEFSEVAKTLKKNESLKACIRCNSPAKYDCYLQRATCKREGCGFDYCTKCLCNYHTTKDCSDGKLLKASCKIGPLPGTKKSKKNLRRL
- binding [5]: binds

Second part, the binder after the results:

- binding [1]: binds
B1: MBP-Emi1-NT (protein, not shown: large carriers)
chain: B2 chain

- binding [6]: binds
B5: MBP-Emi1-CT (protein, not shown: large carriers)
chain: CKELCEKRAKVSSHTATRDESLCRVPLASVQKVAASSLCTSKKQSKNKNGGLSCNRLAEFIEVAQTLKNDQSLKVCVDCGSPAKHDPCLHRAICTRESCKLDFCTRCSCKYHFSKSCLMSKPGSYRIPSEPLPGSKKSKQNLRRL
